No constants are given. Whether binding was seen depends on the method and setting. Some binding calls cover weakened binding; strength is not graded here.

Chains of the proteins cited; added tags and fusions are not shown. Residues count along the entry.
UniProt P22607, residues 23-806: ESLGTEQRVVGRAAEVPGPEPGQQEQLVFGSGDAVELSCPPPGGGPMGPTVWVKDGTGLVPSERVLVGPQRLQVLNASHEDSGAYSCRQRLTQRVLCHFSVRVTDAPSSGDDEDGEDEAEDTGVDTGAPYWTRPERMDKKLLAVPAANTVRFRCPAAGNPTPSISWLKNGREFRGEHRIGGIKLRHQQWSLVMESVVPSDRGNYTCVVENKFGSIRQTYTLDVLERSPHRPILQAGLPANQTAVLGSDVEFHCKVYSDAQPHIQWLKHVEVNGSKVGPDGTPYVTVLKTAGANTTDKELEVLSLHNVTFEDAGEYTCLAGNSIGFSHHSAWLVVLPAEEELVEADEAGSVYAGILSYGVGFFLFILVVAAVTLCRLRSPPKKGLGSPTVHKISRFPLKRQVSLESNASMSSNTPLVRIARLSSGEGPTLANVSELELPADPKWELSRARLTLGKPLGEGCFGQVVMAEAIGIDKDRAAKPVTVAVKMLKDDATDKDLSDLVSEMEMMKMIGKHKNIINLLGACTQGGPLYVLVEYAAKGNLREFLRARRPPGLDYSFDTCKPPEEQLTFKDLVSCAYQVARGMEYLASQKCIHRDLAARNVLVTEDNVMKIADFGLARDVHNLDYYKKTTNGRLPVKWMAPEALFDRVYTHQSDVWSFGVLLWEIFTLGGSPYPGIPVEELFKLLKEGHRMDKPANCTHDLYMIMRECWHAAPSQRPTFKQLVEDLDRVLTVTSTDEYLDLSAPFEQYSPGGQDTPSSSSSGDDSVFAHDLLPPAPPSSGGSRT

This assay has as its target fibroblast growth factor receptor (FGFR-3) (human) (UniProt P22607). Description: covalent cross-linking (BS3/DSS) on T24 and RT112 cells after FGF-1 (50 ng/ml), anti-FGFR-3 immunoprecipitation and immunoblot; dimer ~250 kDa against monomer ~120 kDa.

As to “fibroblast growth factor receptor (FGFR-3) (from UniProt P22607 23-806)”, the binding entry is given as “binds”.

The values are drawn from US20120156169A1.
